Results: PMC9652315

Protein sequences, listed by entry. Tags and fused reporters are not part of them. Lines headed by an entry give the natural chain unless they say otherwise; changes in a name come on top. Residues count along the entry.
UniProt P63165, residues 1-97: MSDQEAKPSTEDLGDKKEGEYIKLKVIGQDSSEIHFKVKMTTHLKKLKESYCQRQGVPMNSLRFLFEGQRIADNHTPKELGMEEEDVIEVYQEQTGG
UniProt P61956: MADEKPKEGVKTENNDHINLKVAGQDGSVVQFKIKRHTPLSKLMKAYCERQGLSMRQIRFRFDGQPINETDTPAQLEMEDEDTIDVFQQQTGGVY
UniProt P60953: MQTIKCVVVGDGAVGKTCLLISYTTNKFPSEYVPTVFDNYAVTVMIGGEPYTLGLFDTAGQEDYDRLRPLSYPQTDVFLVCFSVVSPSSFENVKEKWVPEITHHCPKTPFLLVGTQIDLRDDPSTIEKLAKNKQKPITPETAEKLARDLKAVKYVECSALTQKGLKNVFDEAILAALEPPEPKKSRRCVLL
UniProt A0A2R8Y7D0: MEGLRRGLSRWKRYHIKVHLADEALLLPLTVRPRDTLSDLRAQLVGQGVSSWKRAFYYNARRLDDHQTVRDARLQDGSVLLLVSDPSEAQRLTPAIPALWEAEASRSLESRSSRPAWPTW

Experiments:
pTINCR-SIMmut = assay: co-IP; U2OS cells co-transfected with pTINCR-HA and CDC42-Flag plasmids; anti-HA immunoprecipitation; anti-HA and anti-Flag blots
GST-SUMO1 = GST-SUMO1 (UniProt P63165); assay: pull-down; GST-SUMO1 or GST-SUMO2/3 bound onto glutathione-sepharose beads, incubated with protein extracts of U2OS cells (doxycycline 48 h) for 2 h at 4 °C; Western blot; only the target purified
GST-SUMO2/3 = GST-SUMO2/3 (UniProt P61956); assay: as above

Substance | binding (pTINCR-SIMmut) | binding (GST-SUMO1) | binding (GST-SUMO2/3)
CDC42-Flag (from UniProt P60953 1-191) | no binding | – | –
pTINCR-SIMmut (from UniProt A0A2R8Y7D0) | – | no binding | no binding

These are yes or no findings as the source states them, for the method shown. Binding seen in cells or lysates may run through a third protein.
